Reference: the supplement of paper PMC7661543
Differences between knockout arms are mostly noise.

Tested on: MDA-MB-231
Assay: relative cell number vs DMSO control (72 h) (% of DMSO); higher = less growth inhibition (more cells)
Protocol: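 QMAP-Seq: a pool of 5 breast cancer cell lines (ZR-75-1, SKBR3, HCC-38, MDA-MB-231, BT-20), each carrying 12 doxycycline-inducible Cas9 sgRNA perturbations (11 knockouts plus non-targeting sgNT), was treated with compounds for 72 h at four 10-fold doses (10 nM-10 uM or 1 nM-1 uM range). Barcodes were amplified and sequenced, and cell number was interpolated from 293T spike-in standard curves. The result is expressed as % of the median of DMSO wells. Two biological replicates.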

COc1cccc2cc(-c3nc([C@H]4CC[C@H](C(=O)O)CC4)n4ncnc(N)c34)[nH]c12 [OSI027]
Details	relative cell number
sgRNA knockout: sgATF3, 10 nM	97
sgRNA knockout: sgATF3, 100 nM	128
sgRNA knockout: sgATF3, 1000 nM	103
sgRNA knockout: sgATF3, 10000 nM	67.5
sgRNA knockout: sgATF4, 10 nM	90.7
sgRNA knockout: sgATF4, 100 nM	115
sgRNA knockout: sgATF4, 1000 nM	82.9
sgRNA knockout: sgATF4, 10000 nM	75.5
sgRNA knockout: sgATF6, 10 nM	114
sgRNA knockout: sgATF6, 100 nM	104
sgRNA knockout: sgATF6, 1000 nM	102
sgRNA knockout: sgATF6, 10000 nM	55.4
sgRNA knockout: sgATG7, 10 nM	104
sgRNA knockout: sgATG7, 100 nM	102
sgRNA knockout: sgATG7, 1000 nM	92.4
sgRNA knockout: sgATG7, 10000 nM	58.3
sgRNA knockout: sgERN1, 10 nM	92.7
sgRNA knockout: sgERN1, 100 nM	101
sgRNA knockout: sgERN1, 1000 nM	79.8
sgRNA knockout: sgERN1, 10000 nM	55.6
sgRNA knockout: sgHSF1, 10 nM	107
sgRNA knockout: sgHSF1, 100 nM	111.4
sgRNA knockout: sgHSF1, 1000 nM	74.7
sgRNA knockout: sgHSF1, 10000 nM	58.8
sgRNA knockout: sgHSF2, 10 nM	113
sgRNA knockout: sgHSF2, 100 nM	120
sgRNA knockout: sgHSF2, 1000 nM	77.2
sgRNA knockout: sgHSF2, 10000 nM	61.6
sgRNA knockout: sgKEAP1, 10 nM	81
sgRNA knockout: sgKEAP1, 100 nM	109
sgRNA knockout: sgKEAP1, 1000 nM	86.5
sgRNA knockout: sgKEAP1, 10000 nM	51.7
sgRNA knockout: sgNFE2L2, 10 nM	135
sgRNA knockout: sgNFE2L2, 100 nM	117
sgRNA knockout: sgNFE2L2, 1000 nM	88.4
sgRNA knockout: sgNFE2L2, 10000 nM	58.9
sgRNA knockout: sgSLC35F2, 10 nM	93.2
sgRNA knockout: sgSLC35F2, 100 nM	122
sgRNA knockout: sgSLC35F2, 1000 nM	88.5
sgRNA knockout: sgSLC35F2, 10000 nM	63
sgRNA knockout: sgXBP1, 10 nM	125
sgRNA knockout: sgXBP1, 100 nM	112
sgRNA knockout: sgXBP1, 1000 nM	82.4
sgRNA knockout: sgXBP1, 10000 nM	57.3

C=CCc1cccc(/C=N/NC(=O)CN2CCN(Cc3ccccc3)CC2)c1O [PAC1]
Details	relative cell number
sgRNA knockout: sgATF3, 10 nM	81.2
sgRNA knockout: sgATF3, 100 nM	69.6
sgRNA knockout: sgATF3, 1000 nM	82.7
sgRNA knockout: sgATF3, 10000 nM	27.2
sgRNA knockout: sgATF4, 10 nM	82.3
sgRNA knockout: sgATF4, 100 nM	104
sgRNA knockout: sgATF4, 1000 nM	77.3
sgRNA knockout: sgATF4, 10000 nM	18.6
sgRNA knockout: sgATF6, 10 nM	96.1
sgRNA knockout: sgATF6, 100 nM	99.5
sgRNA knockout: sgATF6, 1000 nM	98.1
sgRNA knockout: sgATF6, 10000 nM	30.1
sgRNA knockout: sgATG7, 10 nM	84.2
sgRNA knockout: sgATG7, 100 nM	85.3
sgRNA knockout: sgATG7, 1000 nM	79.2
sgRNA knockout: sgATG7, 10000 nM	26.6
sgRNA knockout: sgERN1, 10 nM	106
sgRNA knockout: sgERN1, 100 nM	133
sgRNA knockout: sgERN1, 1000 nM	85.8
sgRNA knockout: sgERN1, 10000 nM	24.86
sgRNA knockout: sgHSF1, 10 nM	116
sgRNA knockout: sgHSF1, 100 nM	112
sgRNA knockout: sgHSF1, 1000 nM	79.6
sgRNA knockout: sgHSF1, 10000 nM	29.6
sgRNA knockout: sgHSF2, 10 nM	75.3
sgRNA knockout: sgHSF2, 100 nM	102
sgRNA knockout: sgHSF2, 1000 nM	80.1
sgRNA knockout: sgHSF2, 10000 nM	27.6
sgRNA knockout: sgKEAP1, 10 nM	109
sgRNA knockout: sgKEAP1, 100 nM	103
sgRNA knockout: sgKEAP1, 1000 nM	107
sgRNA knockout: sgKEAP1, 10000 nM	26.5
sgRNA knockout: sgNFE2L2, 10 nM	109
sgRNA knockout: sgNFE2L2, 100 nM	67.2
sgRNA knockout: sgNFE2L2, 1000 nM	75.1
sgRNA knockout: sgNFE2L2, 10000 nM	29.1
sgRNA knockout: sgSLC35F2, 10 nM	93
sgRNA knockout: sgSLC35F2, 100 nM	91
sgRNA knockout: sgSLC35F2, 1000 nM	80
sgRNA knockout: sgSLC35F2, 10000 nM	31.4
sgRNA knockout: sgXBP1, 10 nM	91.4
sgRNA knockout: sgXBP1, 100 nM	92.9
sgRNA knockout: sgXBP1, 1000 nM	77.4
sgRNA knockout: sgXBP1, 10000 nM	24.2

CC(=O)O[C@H]1C(=O)[C@@]2(C)[C@H]([C@H](OC(=O)c3ccccc3)[C@]3(O)C[C@H](OC(=O)[C@H](O)[C@@H](NC(=O)c4ccccc4)c4ccccc4)C(C)=C1C3(C)C)[C@]1(OC(C)=O)CO[C@@H]1C[C@@H]2O [Paclitaxel]
Details	relative cell number
sgRNA knockout: sgATF3, 10 nM	26
sgRNA knockout: sgATF3, 100 nM	15
sgRNA knockout: sgATF3, 1000 nM	20.5
sgRNA knockout: sgATF3, 10000 nM	31.3
sgRNA knockout: sgATF4, 10 nM	50.6
sgRNA knockout: sgATF4, 100 nM	21.9
sgRNA knockout: sgATF4, 1000 nM	22.1
sgRNA knockout: sgATF4, 10000 nM	38.1
sgRNA knockout: sgATF6, 10 nM	29
sgRNA knockout: sgATF6, 100 nM	14
sgRNA knockout: sgATF6, 1000 nM	22
sgRNA knockout: sgATF6, 10000 nM	42.5
sgRNA knockout: sgATG7, 10 nM	33.8
sgRNA knockout: sgATG7, 100 nM	16.2
sgRNA knockout: sgATG7, 1000 nM	18.3
sgRNA knockout: sgATG7, 10000 nM	30.1
sgRNA knockout: sgERN1, 10 nM	32.9
sgRNA knockout: sgERN1, 100 nM	16.3
sgRNA knockout: sgERN1, 1000 nM	15.7
sgRNA knockout: sgERN1, 10000 nM	33.1
sgRNA knockout: sgHSF1, 10 nM	33.8
sgRNA knockout: sgHSF1, 100 nM	13.8
sgRNA knockout: sgHSF1, 1000 nM	17.7
sgRNA knockout: sgHSF1, 10000 nM	33.7
sgRNA knockout: sgHSF2, 10 nM	30.2
sgRNA knockout: sgHSF2, 100 nM	26.2
sgRNA knockout: sgHSF2, 1000 nM	17.2
sgRNA knockout: sgHSF2, 10000 nM	39.5
sgRNA knockout: sgKEAP1, 10 nM	26.9
sgRNA knockout: sgKEAP1, 100 nM	16.6
sgRNA knockout: sgKEAP1, 1000 nM	18
sgRNA knockout: sgKEAP1, 10000 nM	36.8
sgRNA knockout: sgNFE2L2, 10 nM	32.9
sgRNA knockout: sgNFE2L2, 100 nM	21.7
sgRNA knockout: sgNFE2L2, 1000 nM	19.9
sgRNA knockout: sgNFE2L2, 10000 nM	25.8
sgRNA knockout: sgSLC35F2, 10 nM	31.1
sgRNA knockout: sgSLC35F2, 100 nM	18.1
sgRNA knockout: sgSLC35F2, 1000 nM	18.4
sgRNA knockout: sgSLC35F2, 10000 nM	41.8
sgRNA knockout: sgXBP1, 10 nM	34.6
sgRNA knockout: sgXBP1, 100 nM	20.5
sgRNA knockout: sgXBP1, 1000 nM	16.3
sgRNA knockout: sgXBP1, 10000 nM	31.2

C=C1C(=O)O[C@H]2[C@H]1CC/C(C)=C/CC[C@@]1(C)O[C@@H]21 [Parthenolide]
Details	relative cell number
sgRNA knockout: sgATF3, 10 nM	116
sgRNA knockout: sgATF3, 100 nM	95.1
sgRNA knockout: sgATF3, 1000 nM	117
sgRNA knockout: sgATF3, 10000 nM	97.7
sgRNA knockout: sgATF4, 10 nM	118
sgRNA knockout: sgATF4, 100 nM	85.2
sgRNA knockout: sgATF4, 1000 nM	91.4
sgRNA knockout: sgATF4, 10000 nM	104
sgRNA knockout: sgATF6, 10 nM	124
sgRNA knockout: sgATF6, 100 nM	95.6
sgRNA knockout: sgATF6, 1000 nM	92.3
sgRNA knockout: sgATF6, 10000 nM	131
sgRNA knockout: sgATG7, 10 nM	123
sgRNA knockout: sgATG7, 100 nM	109
sgRNA knockout: sgATG7, 1000 nM	93.1
sgRNA knockout: sgATG7, 10000 nM	103
sgRNA knockout: sgERN1, 10 nM	133
sgRNA knockout: sgERN1, 100 nM	86.9
sgRNA knockout: sgERN1, 1000 nM	116
sgRNA knockout: sgERN1, 10000 nM	108
sgRNA knockout: sgHSF1, 10 nM	104
sgRNA knockout: sgHSF1, 100 nM	126
sgRNA knockout: sgHSF1, 1000 nM	111
sgRNA knockout: sgHSF1, 10000 nM	99.6
sgRNA knockout: sgHSF2, 10 nM	127
sgRNA knockout: sgHSF2, 100 nM	104
sgRNA knockout: sgHSF2, 1000 nM	119
sgRNA knockout: sgHSF2, 10000 nM	81.2
sgRNA knockout: sgKEAP1, 10 nM	124
sgRNA knockout: sgKEAP1, 100 nM	147
sgRNA knockout: sgKEAP1, 1000 nM	101
sgRNA knockout: sgKEAP1, 10000 nM	116
sgRNA knockout: sgNFE2L2, 10 nM	106
sgRNA knockout: sgNFE2L2, 100 nM	102
sgRNA knockout: sgNFE2L2, 1000 nM	124
sgRNA knockout: sgNFE2L2, 10000 nM	81.2
sgRNA knockout: sgSLC35F2, 10 nM	106.2
sgRNA knockout: sgSLC35F2, 100 nM	99.1
sgRNA knockout: sgSLC35F2, 1000 nM	95.6
sgRNA knockout: sgSLC35F2, 10000 nM	110
sgRNA knockout: sgXBP1, 10 nM	101
sgRNA knockout: sgXBP1, 100 nM	105
sgRNA knockout: sgXBP1, 1000 nM	96.4
sgRNA knockout: sgXBP1, 10000 nM	83.9
